Measurements published in PubChem BioAssay AID2517 (National Center for Advancing Translational Sciences (NCATS), 2010).
“And” between values parts separate entries of the source, which are not always exact repeats. Equal entries are not always repeated. Among all 350,000 compounds or so, about 1,200 (0.34%) were called active. The shares of active, inactive and inconclusive entries below differ from those in the screen. Calls follow the shape of the dose curve; as a rule, active = well fitted inhibition curve with a large enough effect; inconclusive = small, poorly fitted or top-dose-only effect; inactive = no such curve, though single readings can be large or run the other way. Where the call is inconclusive, the potency comes from a doubtful curve fit.
Also: nearly all actives have a fitted effect of over 55% in size.
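For activity change, negative = inhibition in this document: plate controls were vehicle for no effect and reference inhibitor for full effect.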
Potency is read from the fitted curve at half-maximal effect.

By UniProt entry, the sequences of proteins in these tests, tags left out.
UniProt P27695, whole entry, looked up: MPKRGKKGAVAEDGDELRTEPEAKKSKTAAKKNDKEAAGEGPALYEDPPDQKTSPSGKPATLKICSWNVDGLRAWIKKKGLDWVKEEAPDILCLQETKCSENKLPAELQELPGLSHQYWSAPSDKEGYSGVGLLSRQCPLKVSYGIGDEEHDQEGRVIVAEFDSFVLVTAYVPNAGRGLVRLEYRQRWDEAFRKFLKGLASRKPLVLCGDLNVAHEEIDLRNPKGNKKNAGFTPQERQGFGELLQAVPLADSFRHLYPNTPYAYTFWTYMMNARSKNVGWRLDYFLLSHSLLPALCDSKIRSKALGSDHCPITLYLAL

The compounds below were run against DNA repair nuclease/redox regulator APEX1 (Homo sapiens) (UniProt P27695) (assay: qHTS Assay for Inhibitors of the Human Apurinic/apyrimidinic Endonuclease 1 (APE1)). Conditions: recombinant APE1, TAMRA/BHQ-2 abasic DNA cleavage fluorescence; activity change, negative = inhibition: at 65.8 µM (top of the series).
In short: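 APE1 at 0.75 nM preincubated 15 min at room temperature with compound. Reaction then started with 50 nM double-stranded THF-abasic substrate labelled with TAMRA/BHQ-2, and 525/598 nm fluorescence read kinetically. Activity taken as third-minus-first read difference, normalized to DMSO and NSC13755 controls.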
For `CCSc1nnc(NC(=O)c2cccc(OCc3c(C)noc3C)c2)s1`, the Potency was inconclusive: 39.8 µM [inhibitor, single point].
`O=C(O)CN(CC(=O)O)CC1=CC2C(=CC1=O)Oc1cc(O)c(CN(CC(=O)O)CC(=O)O)cc1C21OC(=O)c2ccccc21` (stereo not given) was tested, and the Potency was active: 12.6 µM.
For `O=C(c1ccco1)N(CCC(c1ccccc1)c1ccco1)Cc1ccccc1` (stereo not given), the Potency was inconclusive: 3.98 µM [inhibitor, partial curve, poor fit].
For `CCN(CC)C(=O)CSc1nnc(-c2ccc(F)cc2)n1N`, the Potency was inconclusive: 0.0045 µM [inhibitor, full curve, poor fit].
For `CCCCNC(=O)NCCN1CCOCC1`, the Potency was inconclusive: 3.16 µM [inhibitor, partial curve, poor fit].
For `N#Cc1nnn(Cc2ccccc2)c1N`, the Potency was inconclusive: 5.62 µM [inhibitor, single point].
For `CC1(OC(=O)C2CCCC2)C(=O)C=C2C=C(c3ccsc3)N(C(CO)CO)C=C2C1=O` (stereo not given), the Potency was inconclusive: 7.94 µM [inhibitor, single point].
`O=C1C2C3C=CC(C2C(=O)N1c1nccs1)C1C(=O)N(c2nccs2)C(=O)C31` (stereo not given) was tested, and the Potency was inconclusive: 44.7 µM [inhibitor, partial curve, poor fit].
`COc1cc(/C=c2\sc3nc(-c4ccncc4)nn3c2=O)ccc1OC(C)=O` was tested, and the “activity change, negative = inhibition” value was inactive: -1.99%.
For `N#Cc1ccc(CN2CCCC3(CCN(C(=O)c4ccco4)CC3)C2)cc1`, the “activity change, negative = inhibition” value was inactive: -2.4%.
In the case of `CCOC(=O)Cc1csc2nc3sc(C)c(C)c3c(=O)n12`, the Potency is reported as inconclusive: 7.08 µM [inhibitor, single point].
In the case of `O=C(c1ccc2nc(-c3ccco3)c(-c3ccco3)nc2c1)N1CCN(c2ncccn2)CC1`, the Potency is reported as inconclusive: 3.55 µM [inhibitor, full curve].
`CC1CC(=O)c2c(cc3c(-c4c(O)cc(O)c5c(O)c6c(cc45)OC(C)CC6=O)c(O)cc(O)c3c2O)O1` (stereo not given) was tested, and the Potency was inconclusive: 2.51 µM [inhibitor, partial curve].
`Cc1ccc2c(C(=O)CCl)c(C)[nH]c2c1` was tested, and the Potency was inconclusive: 251 µM [inhibitor, partial curve, poor fit].
In the case of `Cc1scc(C(=O)NNC(=S)NCC2CCCO2)c1C` (stereo not given), the Potency is reported as inconclusive: 31.6 µM [inhibitor, single point].
`Oc1ccc(C2=Nn3c(nnc3-c3ccco3)SC2)cc1O` was tested, and the “activity change, negative = inhibition” value was inactive: -1.53%.
For `COc1ccc2c(c1)c(=O)c(C(=O)c1ccc(C)cc1)cn2CC(=O)Nc1ccc(F)cc1`, the Potency was inconclusive: 10 µM [inhibitor, single point].
For `O=C(/C=C/c1ccco1)NC1CCCC1`, the Potency was inconclusive: 25.1 µM [inhibitor, single point].
With `Nc1c(C(=O)Nc2cccc(C(=O)O)c2)sc2nc3c(cc12)CCCC3` the “activity change, negative = inhibition” value was inactive: 0.234%.
With `c1cc2c3c(cccc3c1)NC1(CCCCCC1)N2` the “activity change, negative = inhibition” value was inactive: -0.318%.
For `Cn1c(N)c(C(=O)COC(=O)c2ccc(Br)o2)c(=O)n(C)c1=O`, the Potency was inconclusive: 35.5 µM [inhibitor, single point].
With `O=C(NN1CCOCC1)c1cc(-c2ccc(Cl)c(Cl)c2)nc2ccccc12` the Potency was inconclusive: 7.94 µM [inhibitor, single point].
In the case of `OC1(C#CCCN2CCCCC2)c2ccccc2-c2ccccc21`, the Potency is reported as inconclusive: 22.4 µM [inhibitor, single point].
In the case of `Cc1ccc(NC(=S)N2CCCCCC2)cc1`, the Potency is reported as inconclusive: 0.0028 µM [inhibitor, full curve, poor fit].
In the case of `Cn1c2cc(B(O)O)sc2c2cnn(Cc3ccc(F)cc3F)c(=O)c21`, the Potency is reported as active: 13.4 µM.
In the case of `CCCN1C(=O)/C(=C/C=C2\N(CC)c3ccccc3C2(C)C)SC1=S`, the “activity change, negative = inhibition” value is reported as inactive: -3.12%.
In the case of `Cn1c(/C=C/c2ccccc2[N+](=O)[O-])nc2ccccc2c1=O`, the “activity change, negative = inhibition” value is reported as inactive: 15.1%.
In the case of `O=C1C(=Cc2ccc(Br)o2)C(=O)c2ccccc21`, the Potency is reported as active: 8.91 µM.
`CCCNC(=O)Cc1c(OC)ccc2cc(Br)ccc12` was tested, and the Potency was inconclusive: 0.0251 µM [inhibitor, full curve, poor fit].
`COc1ccc(-c2csc(NC(=S)NC(=O)c3cccs3)n2)cc1Br` was tested, and the “activity change, negative = inhibition” value was inactive: 4.16%.
In the case of `C#CCOCCOCCOCCNc1nc(N2CCN(C(=O)Cn3cc(CCO)nn3)CC2)nc(N2CCN(C(=O)[C@H]([C@@H](C)O)n3cc(CCCCN)nn3)CC2)n1`, the Potency is reported as inconclusive: 7.08 µM [inhibitor, single point].
In the case of `O=C(NC(=S)Nc1ccccc1N1CCCC1)c1cccc(F)c1`, the Potency is reported as inconclusive: 3.55 µM [inhibitor, single point].
With `CCCN1C(=O)S/C(=C/c2ccc(N3CCOCC3)o2)C1=O` the “activity change, negative = inhibition” value was inactive: -2.59%.
With `O=C(NCc1ccncc1)C1CCCCC1` the Potency was inconclusive: 12.6 µM [inhibitor, partial curve, poor fit].
`COC(=O)CCCC(=O)NC(C)c1cnn(-c2ccccc2C)c1C` (stereo not given) was tested, and the Potency was inconclusive: 28.2 µM [inhibitor, single point].
For `O=C(CCn1nnc2ccccc2c1=O)NCC1CCC(C(=O)O)CC1` (stereo not given), the Potency was inconclusive: 3.55 µM [inhibitor, single point].
For `c1ccc(OCc2nnc3sc(C4COc5ccccc5O4)nn23)cc1` (stereo not given), the Potency was inconclusive: 35.5 µM [inhibitor, partial curve].
For `C=CCCCCc1nc2ccccc2c(=O)n1N`, the Potency was inconclusive: 22.4 µM [inhibitor, single point].
For `COc1cc(/C=C2/SC(=Nc3ccc(O)cc3)NC2=O)ccc1O`, the “activity change, negative = inhibition” value was inactive: 7.87%.
With `Cc1ccc(NC(=O)CCNS(=O)(=O)c2cccc3nsnc23)cc1` the Potency was inconclusive: 17.8 µM [inhibitor, partial curve, poor fit].
`CCN(CC)C(=O)CSc1nc(O)c(Cc2ccccc2)c(=O)n1-c1ccccc1C` was tested, and the Potency was inconclusive: 3.55 µM [inhibitor, single point].
With `COc1ccc2[nH]c(C(=O)O)c(CCN3C(=O)c4cccc([N+](=O)[O-])c4C3=O)c2c1` the Potency was inconclusive: 35.5 µM [inhibitor, single point].
For `COc1ccccc1-c1cc(NCc2cnc(C)cn2)ncn1`, the “activity change, negative = inhibition” value was inactive: 2.89%.
`COc1ccc([C@@H]2[C@@H](C(=O)C(C)(C)C)N3N=Cc4ccccc4[C@@H]3C23C(=O)OC(C)(C)OC3=O)cc1OC` was tested, and the Potency was inconclusive: 0.1 µM [inhibitor, full curve, poor fit].
In the case of `CCCN(CCC)S(=O)(=O)c1ccc2c(c1)CCCN2C(C)=O`, the Potency is reported as inconclusive: 44.7 µM [inhibitor, single point].
In the case of `CC(C)Cn1c(N)c(C(=O)COC(=O)C2CCCCC2)c(=O)n(C)c1=O`, the “activity change, negative = inhibition” value is reported as inactive: 12.8%.
`Cc1cc(S(N)(=O)=O)c(N)c(S(N)(=O)=O)c1` was tested, and the Potency was inconclusive: 1.78 µM [inhibitor, partial curve, poor fit].
With `N#CNC(=Nc1cccc(F)c1)SCc1cccc(F)c1` the Potency was inconclusive: 39.8 µM [inhibitor, single point].
For `C#CCOCCOCCOCCNc1nc(N2CCN(C(=O)Cn3cc(CCCCN)nn3)CC2)nc(N2CCN(C(=O)[C@H](C(C)C)n3cc(CCO)nn3)CC2)n1`, the Potency was inconclusive: 3.98 µM [inhibitor, full curve].
With `O=C(NCCc1ccccc1Cl)C1CCN(S(=O)(=O)c2cccs2)CC1` the Potency was inconclusive: 8.91 µM [inhibitor, partial curve].
With `Cc1ccc(NC(=O)c2ccc3c(SCC(=O)O)c4c(nc3c2)CCCC4)c(Br)c1` the “activity change, negative = inhibition” value was inactive: 19.1%.
With `O=C(CCC(=O)OCCCC(F)(F)C(F)(F)F)Nc1ccccc1` the Potency was inconclusive: 39.8 µM [inhibitor, single point].
`O=c1c2c([nH]c3ccccc13)C(=C1CCCC1)CC2` was tested, and the Potency was inconclusive: 28.2 µM [inhibitor, single point].
For `O=C(/C=C/c1ccco1)Nc1ccccc1C(=O)Nc1cccc(C(=O)O)c1`, the Potency was inconclusive: 28.2 µM [inhibitor, single point].
With `NNC(=O)c1oc2nc(-c3ccccc3)cc(-c3ccco3)c2c1N` the Potency was inconclusive: 50.1 µM [inhibitor, partial curve, poor fit].
`CC(C)CC1(C(=O)O)NC(c2ccccc2O)C2C(=O)N(C(C)C)C(=O)C21` (stereo not given) was tested, and the Potency was inconclusive: 39.8 µM [inhibitor, single point].
For `O=C(O)Cn1cnc2scc(-c3cccs3)c2c1=O`, the Potency was inconclusive: 12.6 µM [inhibitor, partial curve].
For `O=C1CSC(=S)N1/N=C/c1ccc(Cl)c([N+](=O)[O-])c1`, the Potency was inconclusive: 31.6 µM [inhibitor, single point].
With `CCN1C(=O)[C@H]2[C@H]3[C@H](O)[C@H](O)C/C(=N/O[C@@H](C)c4cn([C@H](CO)Cc5ccccc5)nn4)[C@@H]3CC[C@@H]2C1=O` the activity change, negative = inhibition was inactive: 40.8% [at 12.4 µM] and inactive: -6.74% [at 12.4 µM].
`CCn1c(SCC(=O)N/N=C/C(C)=C\c2ccco2)nnc1-c1ccccc1` was tested, and the Potency was inconclusive: 39.8 µM [inhibitor, single point].
With `CC(C)CNC(=S)Nc1ccc(S(N)(=O)=O)cc1` the Potency was inconclusive: 17.8 µM [inhibitor, single point].
With `CCCCN1CC(O)=C(c2nc(-c3ccc(Br)cc3)cs2)C1=N` the “activity change, negative = inhibition” value was inactive: -4.43%.
For `CCOC(=O)OCC1OC(C#Cc2ccc(C)cc2C)C=CC1OC(=O)OCC` (stereo not given), the Potency was inconclusive: 7.94 µM [inhibitor, single point].
For `CC(NC(=O)CN1CCc2ccccc21)c1ccccc1` (stereo not given), the Potency was inconclusive: 39.8 µM [inhibitor, single point].
With `CC(C)(C)NC(=O)COC(=O)c1cc(Cl)ccc1[N+](=O)[O-]` the Potency was inconclusive: 5.01 µM [inhibitor, partial curve, poor fit].
